Test results from ChEMBL document CHEMBL2218924, “A broad activity screen in support of a chemogenomic map for kinase signalling research and drug discovery” (Biochem J, 2013).
For some assays here: Most of the strong results are listed elsewhere, so they are rarer here than in the full data. The rule behind the calls is not given here. The list shows a part of the results, in another mix than the full data.

The chains behind the UniProt entries cited, without tags or fusion partners. Where a name states a change or a piece, a line headed by the entry shows the natural chain unless it says otherwise.
UniProt P00519, whole entry: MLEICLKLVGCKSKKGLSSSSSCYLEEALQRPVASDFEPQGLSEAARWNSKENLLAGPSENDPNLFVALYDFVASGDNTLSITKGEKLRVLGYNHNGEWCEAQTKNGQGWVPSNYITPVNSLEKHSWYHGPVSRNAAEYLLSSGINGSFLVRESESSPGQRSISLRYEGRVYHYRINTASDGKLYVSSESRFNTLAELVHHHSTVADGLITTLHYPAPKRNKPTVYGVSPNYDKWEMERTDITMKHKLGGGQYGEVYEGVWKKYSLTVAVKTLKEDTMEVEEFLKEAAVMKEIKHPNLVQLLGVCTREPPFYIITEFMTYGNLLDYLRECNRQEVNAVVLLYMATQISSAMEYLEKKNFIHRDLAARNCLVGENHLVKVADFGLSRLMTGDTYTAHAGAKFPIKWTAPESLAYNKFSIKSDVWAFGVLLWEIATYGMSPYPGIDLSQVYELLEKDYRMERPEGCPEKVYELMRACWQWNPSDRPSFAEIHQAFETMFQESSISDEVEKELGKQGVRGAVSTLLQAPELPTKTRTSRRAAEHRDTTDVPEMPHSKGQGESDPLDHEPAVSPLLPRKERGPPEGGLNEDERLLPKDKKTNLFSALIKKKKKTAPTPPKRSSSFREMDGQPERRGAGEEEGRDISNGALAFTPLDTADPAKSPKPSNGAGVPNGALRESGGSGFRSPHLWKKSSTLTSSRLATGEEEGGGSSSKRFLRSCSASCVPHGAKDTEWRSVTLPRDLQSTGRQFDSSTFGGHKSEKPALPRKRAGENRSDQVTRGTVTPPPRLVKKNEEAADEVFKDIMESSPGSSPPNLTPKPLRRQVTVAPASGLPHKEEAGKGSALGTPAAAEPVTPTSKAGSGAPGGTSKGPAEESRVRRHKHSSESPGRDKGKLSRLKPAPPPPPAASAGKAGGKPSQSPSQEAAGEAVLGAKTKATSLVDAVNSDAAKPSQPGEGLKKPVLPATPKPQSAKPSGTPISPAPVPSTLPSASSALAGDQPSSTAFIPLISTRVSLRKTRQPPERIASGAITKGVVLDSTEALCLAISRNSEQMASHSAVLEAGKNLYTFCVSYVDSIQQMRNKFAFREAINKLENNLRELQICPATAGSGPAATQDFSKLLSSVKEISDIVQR
UniProt P42684, whole entry: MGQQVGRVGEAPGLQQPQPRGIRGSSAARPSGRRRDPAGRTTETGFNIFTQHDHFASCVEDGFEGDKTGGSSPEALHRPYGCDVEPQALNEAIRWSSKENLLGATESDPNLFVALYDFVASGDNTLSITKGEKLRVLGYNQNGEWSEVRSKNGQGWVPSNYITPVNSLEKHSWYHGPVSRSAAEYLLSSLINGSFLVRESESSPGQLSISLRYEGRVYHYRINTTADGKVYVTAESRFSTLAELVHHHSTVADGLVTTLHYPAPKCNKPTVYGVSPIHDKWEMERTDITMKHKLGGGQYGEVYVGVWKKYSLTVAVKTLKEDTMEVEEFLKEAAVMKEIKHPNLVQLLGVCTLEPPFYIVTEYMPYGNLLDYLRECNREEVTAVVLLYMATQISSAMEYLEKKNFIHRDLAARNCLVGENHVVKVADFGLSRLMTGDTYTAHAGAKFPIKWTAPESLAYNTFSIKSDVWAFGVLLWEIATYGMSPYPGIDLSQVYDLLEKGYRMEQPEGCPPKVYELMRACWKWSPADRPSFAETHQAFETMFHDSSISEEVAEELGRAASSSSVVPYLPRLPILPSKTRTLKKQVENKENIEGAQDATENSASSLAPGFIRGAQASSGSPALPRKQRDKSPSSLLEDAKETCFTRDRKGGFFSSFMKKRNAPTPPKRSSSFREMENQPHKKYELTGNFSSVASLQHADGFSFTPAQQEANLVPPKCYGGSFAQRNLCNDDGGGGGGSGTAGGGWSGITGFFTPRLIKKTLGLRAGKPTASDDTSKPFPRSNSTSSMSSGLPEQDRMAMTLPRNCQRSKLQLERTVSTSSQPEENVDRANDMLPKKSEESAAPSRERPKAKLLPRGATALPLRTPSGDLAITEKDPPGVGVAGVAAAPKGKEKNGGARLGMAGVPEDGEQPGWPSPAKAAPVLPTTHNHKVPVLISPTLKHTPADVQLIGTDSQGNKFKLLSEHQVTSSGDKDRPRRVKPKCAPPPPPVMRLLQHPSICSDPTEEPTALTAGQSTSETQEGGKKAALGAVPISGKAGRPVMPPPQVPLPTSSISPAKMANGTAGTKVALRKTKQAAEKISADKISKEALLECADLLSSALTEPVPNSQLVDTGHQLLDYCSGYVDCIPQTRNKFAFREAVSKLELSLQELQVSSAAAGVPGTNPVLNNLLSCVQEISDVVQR
UniProt O14965: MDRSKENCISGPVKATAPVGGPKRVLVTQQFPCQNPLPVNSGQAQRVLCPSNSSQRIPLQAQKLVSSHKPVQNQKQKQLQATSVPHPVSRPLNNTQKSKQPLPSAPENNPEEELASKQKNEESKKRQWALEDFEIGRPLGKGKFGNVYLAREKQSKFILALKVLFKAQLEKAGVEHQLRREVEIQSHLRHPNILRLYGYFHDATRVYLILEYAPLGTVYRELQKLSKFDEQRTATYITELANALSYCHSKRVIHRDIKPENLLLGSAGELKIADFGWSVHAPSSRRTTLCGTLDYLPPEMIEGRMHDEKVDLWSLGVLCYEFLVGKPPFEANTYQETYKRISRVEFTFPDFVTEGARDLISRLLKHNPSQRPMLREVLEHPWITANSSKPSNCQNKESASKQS
UniProt Q9UQB9: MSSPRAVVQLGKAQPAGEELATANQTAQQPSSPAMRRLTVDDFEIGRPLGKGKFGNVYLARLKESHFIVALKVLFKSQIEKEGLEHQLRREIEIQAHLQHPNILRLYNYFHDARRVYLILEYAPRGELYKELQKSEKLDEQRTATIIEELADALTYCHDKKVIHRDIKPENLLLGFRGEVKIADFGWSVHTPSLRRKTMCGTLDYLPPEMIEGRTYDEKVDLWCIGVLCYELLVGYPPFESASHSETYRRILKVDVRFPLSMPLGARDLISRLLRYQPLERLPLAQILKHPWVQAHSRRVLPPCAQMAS
UniProt Q06187: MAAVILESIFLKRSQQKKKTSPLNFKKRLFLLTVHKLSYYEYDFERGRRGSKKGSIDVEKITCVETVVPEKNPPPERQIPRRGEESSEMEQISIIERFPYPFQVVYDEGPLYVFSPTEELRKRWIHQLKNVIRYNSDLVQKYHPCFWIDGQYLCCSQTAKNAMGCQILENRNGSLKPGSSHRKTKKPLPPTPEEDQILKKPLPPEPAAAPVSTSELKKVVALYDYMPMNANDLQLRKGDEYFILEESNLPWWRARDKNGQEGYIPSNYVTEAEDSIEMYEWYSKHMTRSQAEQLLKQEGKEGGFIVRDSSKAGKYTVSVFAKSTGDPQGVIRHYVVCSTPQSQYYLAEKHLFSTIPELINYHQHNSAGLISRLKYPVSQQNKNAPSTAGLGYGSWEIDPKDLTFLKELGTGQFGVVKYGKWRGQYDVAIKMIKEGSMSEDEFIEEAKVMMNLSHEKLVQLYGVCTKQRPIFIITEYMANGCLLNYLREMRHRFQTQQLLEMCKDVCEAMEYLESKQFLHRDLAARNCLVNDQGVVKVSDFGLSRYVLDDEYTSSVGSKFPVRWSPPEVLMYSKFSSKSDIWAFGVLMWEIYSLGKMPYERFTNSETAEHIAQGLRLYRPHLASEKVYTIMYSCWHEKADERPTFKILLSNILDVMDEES
UniProt P78396: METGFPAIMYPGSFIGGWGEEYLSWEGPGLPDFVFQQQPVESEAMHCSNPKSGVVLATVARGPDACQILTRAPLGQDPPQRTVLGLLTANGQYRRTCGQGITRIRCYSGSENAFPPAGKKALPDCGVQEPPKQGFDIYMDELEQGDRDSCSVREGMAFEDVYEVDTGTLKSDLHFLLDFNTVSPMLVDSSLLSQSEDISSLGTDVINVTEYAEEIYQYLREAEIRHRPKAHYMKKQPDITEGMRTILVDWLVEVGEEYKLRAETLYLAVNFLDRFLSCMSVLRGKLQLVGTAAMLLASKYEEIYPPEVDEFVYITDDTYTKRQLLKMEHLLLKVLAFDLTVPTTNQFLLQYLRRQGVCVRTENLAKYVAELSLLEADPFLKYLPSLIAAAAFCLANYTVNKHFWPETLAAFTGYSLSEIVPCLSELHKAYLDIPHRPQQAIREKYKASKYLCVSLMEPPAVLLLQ
UniProt Q00535, whole entry, looked up: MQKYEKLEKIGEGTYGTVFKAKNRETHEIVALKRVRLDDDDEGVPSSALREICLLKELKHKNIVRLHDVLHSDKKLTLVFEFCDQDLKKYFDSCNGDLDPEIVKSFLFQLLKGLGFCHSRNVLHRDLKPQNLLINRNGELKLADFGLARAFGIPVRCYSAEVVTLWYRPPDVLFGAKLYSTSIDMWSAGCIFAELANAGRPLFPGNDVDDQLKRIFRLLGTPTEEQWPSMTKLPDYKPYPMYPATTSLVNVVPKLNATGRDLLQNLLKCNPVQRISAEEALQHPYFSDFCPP
UniProt Q00534: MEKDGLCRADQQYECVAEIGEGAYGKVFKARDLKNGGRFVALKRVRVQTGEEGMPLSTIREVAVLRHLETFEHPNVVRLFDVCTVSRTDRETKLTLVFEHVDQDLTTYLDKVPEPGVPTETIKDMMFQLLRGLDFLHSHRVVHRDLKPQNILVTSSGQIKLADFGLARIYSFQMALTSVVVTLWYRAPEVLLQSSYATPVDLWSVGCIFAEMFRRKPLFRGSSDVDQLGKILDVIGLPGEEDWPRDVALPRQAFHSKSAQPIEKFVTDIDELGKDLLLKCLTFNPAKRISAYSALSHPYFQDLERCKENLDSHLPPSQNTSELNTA
UniProt P51946: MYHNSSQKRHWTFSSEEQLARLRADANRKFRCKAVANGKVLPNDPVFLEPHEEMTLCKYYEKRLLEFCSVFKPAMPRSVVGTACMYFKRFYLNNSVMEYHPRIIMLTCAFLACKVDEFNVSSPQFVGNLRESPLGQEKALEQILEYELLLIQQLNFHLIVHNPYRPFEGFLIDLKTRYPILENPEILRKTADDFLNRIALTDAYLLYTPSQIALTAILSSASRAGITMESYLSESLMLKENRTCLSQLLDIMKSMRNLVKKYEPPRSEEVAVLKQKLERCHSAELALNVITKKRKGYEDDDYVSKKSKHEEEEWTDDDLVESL
UniProt O60563: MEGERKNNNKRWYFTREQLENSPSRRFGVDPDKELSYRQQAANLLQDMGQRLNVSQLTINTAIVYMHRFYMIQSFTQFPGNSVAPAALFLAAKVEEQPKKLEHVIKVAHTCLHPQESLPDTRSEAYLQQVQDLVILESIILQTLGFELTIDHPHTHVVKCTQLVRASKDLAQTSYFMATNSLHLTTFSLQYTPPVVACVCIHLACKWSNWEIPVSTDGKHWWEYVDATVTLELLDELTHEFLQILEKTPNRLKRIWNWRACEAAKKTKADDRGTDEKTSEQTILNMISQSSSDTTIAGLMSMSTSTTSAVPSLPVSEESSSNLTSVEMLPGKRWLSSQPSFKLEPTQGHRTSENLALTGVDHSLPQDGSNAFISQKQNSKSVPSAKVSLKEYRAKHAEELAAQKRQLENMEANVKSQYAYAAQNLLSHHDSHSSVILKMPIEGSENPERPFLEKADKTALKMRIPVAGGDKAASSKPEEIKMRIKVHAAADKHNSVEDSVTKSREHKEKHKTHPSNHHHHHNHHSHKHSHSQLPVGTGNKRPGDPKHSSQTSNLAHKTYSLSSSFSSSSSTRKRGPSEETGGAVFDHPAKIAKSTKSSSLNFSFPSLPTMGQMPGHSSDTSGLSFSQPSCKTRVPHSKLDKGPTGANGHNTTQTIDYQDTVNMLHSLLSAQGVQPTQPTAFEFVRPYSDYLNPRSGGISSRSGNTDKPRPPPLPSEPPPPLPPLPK
UniProt P68400, whole entry, looked up: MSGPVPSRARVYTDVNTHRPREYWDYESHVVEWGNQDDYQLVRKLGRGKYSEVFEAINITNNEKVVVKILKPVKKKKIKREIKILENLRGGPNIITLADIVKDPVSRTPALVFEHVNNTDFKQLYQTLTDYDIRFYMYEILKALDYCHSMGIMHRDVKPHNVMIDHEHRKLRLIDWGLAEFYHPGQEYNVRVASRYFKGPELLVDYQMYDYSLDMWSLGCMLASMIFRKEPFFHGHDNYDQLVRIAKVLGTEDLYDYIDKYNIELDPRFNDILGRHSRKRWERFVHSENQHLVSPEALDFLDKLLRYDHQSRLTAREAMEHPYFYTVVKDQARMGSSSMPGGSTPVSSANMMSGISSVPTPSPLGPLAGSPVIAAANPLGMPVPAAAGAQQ
UniProt P19784, whole entry, looked up: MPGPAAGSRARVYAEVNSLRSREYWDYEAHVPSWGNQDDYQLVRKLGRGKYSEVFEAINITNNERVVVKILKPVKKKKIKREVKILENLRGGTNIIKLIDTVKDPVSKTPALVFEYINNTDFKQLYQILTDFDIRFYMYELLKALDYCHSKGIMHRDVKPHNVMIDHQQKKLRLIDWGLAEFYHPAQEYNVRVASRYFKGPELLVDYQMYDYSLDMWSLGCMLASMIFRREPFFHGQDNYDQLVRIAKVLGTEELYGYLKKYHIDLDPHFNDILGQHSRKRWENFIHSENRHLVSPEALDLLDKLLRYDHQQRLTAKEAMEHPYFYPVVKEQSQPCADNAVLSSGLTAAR

What was measured:
[1] = target: Protein kinase C zeta type (Homo sapiens) (UniProt Q05513); conditions: at 1 µM
[2] = target: Mitogen-activated protein kinase kinase kinase 5 (Homo sapiens) (UniProt Q99683); conditions: at 10 µM
[3] = target: Tyrosine-protein kinase ABL1 (Homo sapiens) (UniProt P00519); conditions: at 1 µM
[4] = target: Tyrosine-protein kinase ABL1 (Homo sapiens) (UniProt P00519); conditions: at 10 µM
[5] = target: Tyrosine-protein kinase ABL2 (Homo sapiens) (UniProt P42684); conditions: at 1 µM
[6] = target: Tyrosine-protein kinase ABL2 (Homo sapiens) (UniProt P42684); conditions: at 10 µM
[7] = target: Aurora kinase A (Homo sapiens) (UniProt O14965); conditions: at 1 µM
[8] = target: Aurora kinase A (Homo sapiens) (UniProt O14965); conditions: at 10 µM
[9] = target: Aurora kinase B (Homo sapiens) (UniProt Q96GD4); conditions: at 1 µM
[10] = target: Aurora kinase B (Homo sapiens) (UniProt Q96GD4); conditions: at 10 µM
[11] = target: Aurora kinase C (Homo sapiens) (UniProt Q9UQB9); conditions: at 1 µM
[12] = target: Aurora kinase C (Homo sapiens) (UniProt Q9UQB9); conditions: at 10 µM
[13] = target: Tyrosine-protein kinase receptor UFO (Homo sapiens) (UniProt P30530); conditions: at 1 µM
[14] = target: Tyrosine-protein kinase receptor UFO (Homo sapiens) (UniProt P30530); conditions: at 10 µM
[15] = target: Protein-tyrosine kinase 6 (Homo sapiens) (UniProt Q13882); conditions: at 1 µM
[16] = target: Protein-tyrosine kinase 6 (Homo sapiens) (UniProt Q13882); conditions: at 10 µM
[17] = target: Tyrosine-protein kinase BTK (Homo sapiens) (UniProt Q06187); conditions: at 1 µM
[18] = target: Tyrosine-protein kinase BTK (Homo sapiens) (UniProt Q06187); conditions: at 10 µM
[19] = target: Tyrosine-protein kinase Blk (Homo sapiens) (UniProt P51451); conditions: at 1 µM
[20] = target: Tyrosine-protein kinase Blk (Homo sapiens) (UniProt P51451); conditions: at 10 µM
[21] = target: Serine/threonine-protein kinase BRSK1 (Homo sapiens) (UniProt Q8TDC3); conditions: at 1 µM
[22] = target: Serine/threonine-protein kinase BRSK1 (Homo sapiens) (UniProt Q8TDC3); conditions: at 10 µM
[23] = target: Serine/threonine-protein kinase BRSK2 (Homo sapiens) (UniProt Q8IWQ3); conditions: at 1 µM
[24] = target: Serine/threonine-protein kinase BRSK2 (Homo sapiens) (UniProt Q8IWQ3); conditions: at 10 µM
[25] = target: T1, Cyclin-dependent kinase 1/cyclin B1 (Homo sapiens) (UniProt P06493+P14635); conditions: at 1 µM
[26] = target: T1, Cyclin-dependent kinase 1/cyclin B1 (Homo sapiens); conditions: at 10 µM
[27] = target: T2, Cyclin-dependent kinase 2/cyclin A (Homo sapiens) (UniProt P24941+P20248+P78396); conditions: at 1 µM
[28] = target: T2, Cyclin-dependent kinase 2/cyclin A (Homo sapiens); conditions: at 10 µM
[29] = target: T3, Cyclin-dependent kinase 2/cyclin E (Homo sapiens) (UniProt P24864+P24941+O96020); conditions: at 1 µM
[30] = target: T3, Cyclin-dependent kinase 2/cyclin E (Homo sapiens); conditions: at 10 µM
[31] = target: T4, CDK3/cyclin E (Homo sapiens) (UniProt P24864+O96020+Q00526); conditions: at 1 µM
[32] = target: T4, CDK3/cyclin E (Homo sapiens); conditions: at 10 µM
[33] = target: T5, Cyclin-dependent kinase 5/CDK5 activator 1 (Homo sapiens) (UniProt Q00535+Q15078); conditions: at 1 µM
[34] = target: T5, Cyclin-dependent kinase 5/CDK5 activator 1 (Homo sapiens); conditions: at 10 µM
[35] = target: T5, Cyclin-dependent kinase 5/CDK5 activator 1 (Homo sapiens); conditions: at 1 µM; remark: listed apart in the source
[36] = target: T5, Cyclin-dependent kinase 5/CDK5 activator 1 (Homo sapiens); conditions: at 10 µM; remark: listed apart in the source
[37] = target: T6, CDK6/cyclin D3 (Homo sapiens) (UniProt P30281+Q00534); conditions: at 1 µM
[38] = target: T6, CDK6/cyclin D3 (Homo sapiens); conditions: at 10 µM
[39] = target: T7, Cyclin-dependent kinase 7/ cyclin H (Homo sapiens) (UniProt P51946+P50613); conditions: at 1 µM
[40] = target: T7, Cyclin-dependent kinase 7/ cyclin H (Homo sapiens); conditions: at 10 µM
[41] = target: T8, CDK9/cyclin T1 (Homo sapiens) (UniProt O60563+P50750); conditions: at 1 µM
[42] = target: T8, CDK9/cyclin T1 (Homo sapiens); conditions: at 10 µM
[43] = target: Serine/threonine-protein kinase Chk1 (Homo sapiens) (UniProt O14757); conditions: at 1 µM
[44] = target: Serine/threonine-protein kinase Chk1 (Homo sapiens) (UniProt O14757); conditions: at 10 µM
[45] = target: Serine/threonine-protein kinase Chk2 (Homo sapiens) (UniProt O96017); conditions: at 1 µM
[46] = target: Serine/threonine-protein kinase Chk2 (Homo sapiens) (UniProt O96017); conditions: at 10 µM
[47] = target: Casein kinase I isoform gamma-1 (Homo sapiens) (UniProt Q9HCP0); conditions: at 1 µM
[48] = target: Casein kinase I isoform gamma-1 (Homo sapiens) (UniProt Q9HCP0); conditions: at 10 µM
[49] = target: Casein kinase I isoform delta (Homo sapiens) (UniProt P48730); conditions: at 1 µM
[50] = target: Casein kinase I isoform delta (Homo sapiens) (UniProt P48730); conditions: at 10 µM
[51] = target: T9, Casein kinase II (Homo sapiens) (UniProt P67870+P68400+P19784); conditions: at 1 µM
[52] = target: T9, Casein kinase II (Homo sapiens); conditions: at 10 µM
[53] = target: Casein kinase II subunit alpha' (Homo sapiens) (UniProt P19784); conditions: at 1 µM
[54] = target: Casein kinase II subunit alpha' (Homo sapiens) (UniProt P19784); conditions: at 10 µM
[55] = target: Dual specificity protein kinase CLK2 (Homo sapiens) (UniProt P49760); conditions: at 1 µM
[56] = target: Dual specificity protein kinase CLK2 (Homo sapiens) (UniProt P49760); conditions: at 10 µM

## O=C1Nc2ccc(-c3cccnc3)cc2/C1=C\c1ccc[nH]1
[1]
  residual activity: inactive: 91%
[2]
  residual activity: 20%
[3]
  residual activity: 39%
[4]
  residual activity: 3%
[5]
  residual activity: 59%
[6]
  residual activity: 11%
[7]
  residual activity: 4%
[8]
  residual activity: 0%
[9]
  residual activity: 4%
[10]
  residual activity: 4%
[11]
  residual activity: 53%
[12]
  residual activity: 6%
[13]
  residual activity: 8%
[14]
  residual activity: -1%
[15]
  residual activity: 85%
[16]
  residual activity: 40%
[17]
  residual activity: 90%
[18]
  residual activity: 54%
[19]
  residual activity: 12%
[20]
  residual activity: 2%
[21]
  residual activity: 1%
[22]
  residual activity: 2%
[23]
  residual activity: 10%
[24]
  residual activity: 1%
[25]
  residual activity: 1%
[26]
  residual activity: 0%
[27]
  residual activity: 1%
[28]
  residual activity: 0%
[29]
  residual activity: 6%
[30]
  residual activity: 1%
[31]
  residual activity: 10%
[32]
  residual activity: 1%
[33]
  residual activity: 1%
[34]
  residual activity: 0%
[35]
  residual activity: 1%
[36]
  residual activity: 0%
[37]
  residual activity: 22%
[38]
  residual activity: 6%
[39]
  residual activity: 41%
[40]
  residual activity: 9%
[41]
  residual activity: 12%
[42]
  residual activity: 3%
[43]
  residual activity: 10%
[44]
  residual activity: 3%
[45]
  residual activity: 24%
[46]
  residual activity: 4%
[47]
  residual activity: 90%
[48]
  residual activity: 47%
[49]
  residual activity: 73%
[50]
  residual activity: 26%
[51]
  residual activity: 69%
[52]
  residual activity: 79%
[53]
  residual activity: 105%
[54]
  residual activity: 36%
[55]
  residual activity: 1%
[56]
  residual activity: 1%
